# According to the supplement of paper PMC8728848:
# This is one part of the list.
# Experiments:
# Assay in all cases: glycan array binding signal (z-score within array); higher = stronger binding
# Details in all cases: glycan notation: IUPAC condensed, linker removed
# [1] = target: Fuc(a1-2)Gal
# In short: (§1)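 The Consortium for Functional Glycomics database supplied 3228 glycan arrays, of which those lacking an available protein sequence were dropped. The binding signal, a within-array Z-score, was averaged across arrays of the same protein sequence and across linkers. Negative scores can be read as non-binding.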
# [2] = target: Fuc(a1-2)Gal(b1-3)GalNAc
# In short: as §1
# [3] = target: Fuc(a1-2)Gal(b1-3)GalNAc(a1-3)[Fuc(a1-2)]Gal(b1-4)Glc
# In short: as §1
# [4] = target: Fuc(a1-2)Gal(b1-3)GalNAc(a1-3)[Fuc(a1-2)]Gal(b1-4)GlcNAc
# In short: as §1
# [5] = target: Fuc(a1-2)Gal(b1-3)GalNAc(b1-3)Gal
# In short: as §1
# [6] = target: Fuc(a1-2)Gal(b1-3)GalNAc(b1-3)Gal(a1-4)Gal(b1-4)Glc
# In short: as §1
# [7] = target: Fuc(a1-2)Gal(b1-3)GalNAc(b1-4)[Neu5Ac(a2-3)]Gal(b1-4)Glc
# In short: as §1
# [8] = target: Fuc(a1-2)Gal(b1-3)GlcNAc
# In short: as §1
# [9] = target: Fuc(a1-2)Gal(b1-3)GlcNAc(b1-2)Man(a1-3)[Fuc(a1-2)Gal(b1-3)GlcNAc(b1-2)Man(a1-6)]Man(b1-4)GlcNAc(b1-4)GlcNAc
# In short: as §1
# [10] = target: Fuc(a1-2)Gal(b1-3)GlcNAc(b1-2)Man(a1-3)[Fuc(a1-2)Gal(b1-3)GlcNAc(b1-2)Man(a1-6)]Man(b1-4)GlcNAc(b1-4)[Fuc(a1-6)]GlcNAc
# In short: as §1
# [11] = target: Fuc(a1-2)Gal(b1-3)GlcNAc(b1-3)Gal(b1-4)Glc
# In short: as §1
# [12] = target: Fuc(a1-2)Gal(b1-3)GlcNAc(b1-3)GalNAc
# In short: as §1
# [13] = target: Fuc(a1-2)Gal(b1-3)GlcNAc(b1-3)[Fuc(a1-2)Gal(b1-3)GlcNAc(b1-6)]GalNAc
# In short: as §1
# [14] = target: Fuc(a1-2)Gal(b1-3)GlcNAc(b1-3)[Gal(b1-4)GlcNAc(b1-6)]Gal(b1-4)Glc
# In short: as §1
# [15] = target: Fuc(a1-2)Gal(b1-3)GlcNAc(b1-3)[Neu5Ac(a2-6)Gal(b1-4)GlcNAc(b1-6)]Gal(b1-4)Glc
# In short: as §1
# [16] = target: Fuc(a1-2)Gal(b1-3)GlcNAc6S
# In short: as §1
# [17] = target: Fuc(a1-2)Gal(b1-3)[Fuc(a1-4)]GlcNAc
# In short: as §1
# [18] = target: Fuc(a1-2)Gal(b1-3)[Fuc(a1-4)]GlcNAc(b1-2)Man(a1-3)[Fuc(a1-2)Gal(b1-3)[Fuc(a1-4)]GlcNAc(b1-2)Man(a1-3)]Man(b1-4)GlcNAc(b1-4)GlcNAc
# In short: as §1
# [19] = target: Fuc(a1-2)Gal(b1-3)[Fuc(a1-4)]GlcNAc(b1-2)Man(a1-3)[Fuc(a1-2)Gal(b1-3)[Fuc(a1-4)]GlcNAc(b1-2)Man(a1-6)]Man(b1-4)GlcNAc(b1-4)[Fuc(a1-6)]GlcNAc(b1-4)[Fuc(a1-6)]GlcNAc
# In short: as §1
# [20] = target: Fuc(a1-2)Gal(b1-3)[Fuc(a1-4)]GlcNAc(b1-3)[Fuc(a1-3)[Gal(b1-4)]GlcNAc(b1-6)]Gal(b1-4)Glc
# In short: as §1
# [21] = target: Fuc(a1-2)Gal(b1-3)[Fuc(a1-4)]GlcNAc(b1-3)[Gal(b1-4)GlcNAc(b1-6)]Gal(b1-4)Glc
# In short: as §1
# [22] = target: Fuc(a1-2)Gal(b1-4)Glc
# In short: as §1
# [23] = target: Fuc(a1-2)Gal(b1-4)Glc6S
# In short: as §1
# [24] = target: Fuc(a1-2)Gal(b1-4)GlcNAc
# In short: as §1
# [25] = target: Fuc(a1-2)Gal(b1-4)GlcNAc(b1-2)Man
# In short: as §1
# [26] = target: Fuc(a1-2)Gal(b1-4)GlcNAc(b1-2)Man(a1-3)[Fuc(a1-2)Gal(b1-4)GlcNAc(b1-2)Man(a1-6)]Man(b1-4)GlcNAc(b1-4)GlcNAc
# In short: as §1
# [27] = target: Fuc(a1-2)Gal(b1-4)GlcNAc(b1-2)Man(a1-3)[Fuc(a1-2)Gal(b1-4)GlcNAc(b1-2)Man(a1-6)]Man(b1-4)GlcNAc(b1-4)[Fuc(a1-6)]GlcNAc
# In short: as §1
# [28] = target: Fuc(a1-2)Gal(b1-4)GlcNAc(b1-2)[Fuc(a1-2)Gal(b1-4)GlcNAc(b1-4)]Man(a1-3)[Fuc(a1-2)Gal(b1-4)GlcNAc(b1-2)Man(a1-6)]Man(b1-4)GlcNAc(b1-4)GlcNAc
# In short: as §1
# [29] = target: Fuc(a1-2)Gal(b1-4)GlcNAc(b1-3)Gal(b1-4)GlcNAc
# In short: as §1
# [30] = target: Fuc(a1-2)Gal(b1-4)GlcNAc(b1-3)Gal(b1-4)GlcNAc(b1-2)Man(a1-3)[Fuc(a1-2)Gal(b1-4)GlcNAc(b1-3)Gal(b1-4)GlcNAc(b1-2)Man(a1-6)]Man(b1-4)GlcNAc(b1-4)GlcNAc
# In short: as §1
binder,measurement,setting,value
Blon0732mut (Bifidobacterium longum) (protein) MPTSEHKADDATRHLTLIPAPVTLEYTHGTALIGPLVTIEDADQSWETLPIEQLSDELRHRYGVTVLRRRTHGTVISLGLDSRLAHDEYTLDVSESEGIRVRGGGESGLRYGLQTLRQIIGQTSRAIPCLHIQDKPAFAVRAYSLDVTRGRVPTMEFLTWFVDQLALYKYNQFQLYVEHAFAFVELSEAWRGTDPLTAADITYLDEYCARRGIELVPSLATFGHMYMNLRTREHRGLGEFPEDADRPFSFIERMEHHTLNAADPKAHDFASRLIEEYAPLFRSKSFNIGGNETFDLGRGRSAQDAPEAGRDELYAGFVRDLCETLARHGRQPMLWADIALESPRTMDLLPGDITMLNWMYEPQIDESKIQTIATQGRRQFVCPAVRAWSRFFPDYAGAWLNTYHMALAGTKYDAEGMVVTDWGDYGHVNDPRLSVPGLCYGAQNAWNPIEIDAHEMNRRISALVYGDESGRIMDCLARIDSDGVSFPWDLAVQVLELEYGSGTGALNMDVAACMERSSGGKLTLDRTLGCDDARRRMLQWNRERIERRRDCDQVLRDCGDAFAGLDKGGLTAEFLSVMLDGQRLFNELGEELLALADGKDVGSGANRLAADLELWFERYRAQWLSVGRHAELARIAHVVWSLADILRRGAL,glycan array binding signal (z-score),[1],0.288
same,glycan array binding signal (z-score),[2],-0.563
same,glycan array binding signal (z-score),[3],-0.382
same,glycan array binding signal (z-score),[4],0.027
same,glycan array binding signal (z-score),[5],-1.26
same,glycan array binding signal (z-score),[6],0.475
same,glycan array binding signal (z-score),[7],0.478
same,glycan array binding signal (z-score),[8],0.16
same,glycan array binding signal (z-score),[9],0.392
same,glycan array binding signal (z-score),[10],0.26
same,glycan array binding signal (z-score),[11],-0.262
same,glycan array binding signal (z-score),[12],-0.227
same,glycan array binding signal (z-score),[13],-0.488
same,glycan array binding signal (z-score),[14],-1.19
same,glycan array binding signal (z-score),[15],0.027
same,glycan array binding signal (z-score),[16],0.454
same,glycan array binding signal (z-score),[17],0.087
same,glycan array binding signal (z-score),[18],-0.129
same,glycan array binding signal (z-score),[19],0.926
same,glycan array binding signal (z-score),[20],-0.7
same,glycan array binding signal (z-score),[21],-0.87
same,glycan array binding signal (z-score),[22],1.45
same,glycan array binding signal (z-score),[23],-0.346
same,glycan array binding signal (z-score),[24],-0.24
same,glycan array binding signal (z-score),[25],-1.24
same,glycan array binding signal (z-score),[26],0.043
same,glycan array binding signal (z-score),[27],-0.552
same,glycan array binding signal (z-score),[28],-0.691
same,glycan array binding signal (z-score),[29],-0.351
same,glycan array binding signal (z-score),[30],-0.325
